## Results of single-concentration screens

A: 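Whole-parasite assay of Trypanosoma brucei over 72 hours; the read-out is not stated. Concentration: 30 µM. Higher reads as stronger inhibition (inferred: compounds with an IC50 in retests scored well above the rest). Values scatter widely below zero; nearly all retest evidence comes from the higher of the two concentrations used. Of about 64,000 compounds tested this way, about 940 (1.5%) reached 50% or more in at least one test.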
B: 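Assay of Toxoplasma gondii numbers, read through their beta-galactosidase reporter with a colour substrate. Compounds at 10 µM. The record gives no direction; the compounds picked for IC50 retests had high values, so higher reads as fewer parasites. Of about 67,000 compounds tested this way, about 260 (0.38%) reached 50% or more in at least one test.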
C: 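Cell assay of Leishmania donovani living inside macrophages; the read-out is not stated. Concentration: 30 µM. The record gives no direction; compounds that gave an IC50 in retests scored well above the rest, so higher reads as stronger inhibition. About 69,000 compounds were tested under these conditions; 1.5% (about 1,000) showed 50% or more at least once.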

Each number is a percent effect as filed.
How 0% and 100% were set is not recorded. Most values in the screen are low, and negative values occur.
This is an unselected part of the compounds tested.

compound: O=C(O)C(F)(F)F.[H][C@@]12CCN(C(=O)C(C)C)CC[C@]1(C(=O)N1CCOCC1)CCN2C
A: -10.23
B: 2.108
C: -11.95

compound: O=C(Nc1ccc(-c2ccn[nH]2)cc1)C1CCCN(Cc2ccoc2)C1 (configuration not stated)
A: -24.14
B: 8.346
C: 12.74

compound: [H][C@@]12COC[C@]1(c1nc(C)no1)CN(S(C)(=O)=O)C2
A: -11.14
B: 11.18
C: 4.247

compound: CNc1ncc(CN(C)Cc2cc(O)c3cccc(Cl)c3n2)cn1
A: 9.137
B: -9.813
C: 31.53

compound: CN(C(=O)c1ncn2c1CN(C)S(=O)(=O)c1ccccc1-2)C1CC1.O=C(O)C(F)(F)F
A: -19.09
B: -19.55
C: -4.303

compound: CCCc1ccc(S(=O)(=O)NC(=O)CCC2CCCO2)cc1 (configuration not stated)
A: -16.62
B: -26.43
C: 5.025

compound: [H][C@@]12CCN(C[C@@H]1CC)[C@@H](CNC(=O)Nc1cccc(C(F)(F)F)c1)C2
A: 3.45
B: 5.431
C: 17.32

compound: c1ccc(CCN2CCOC3(CCc4ccccc43)C2)nc1 (configuration not stated)
A: -23.94
B: -3.058
C: -10.07

compound: COc1ccc(C)c(NC(=O)NCc2ncnn2C)c1
A: -13.42
B: 1.951
C: 15.2

compound: Cc1nc(N(C)C)nc2c1COCC21CCN(C(=O)NCC(C)C)C1 (configuration not stated)
A: -2.614
B: 2.852
C: -16.64

compound: Cc1ccc(C)c(OCc2cc(C(=O)N(C)Cc3nonc3C)no2)c1
A: 1.952
B: 0.3861
C: -8.087

compound: CCN1CCN(C)C2(CCN(Cc3ccsc3)CC2)C1=O.O=C(O)C(F)(F)F.O=C(O)C(F)(F)F
A: -66.4
B: -12.92
C: 5.865

compound: CC(NC(=O)NCCCN(C(C)C)S(C)(=O)=O)c1ccncc1 (configuration not stated)
A: -4.281
B: -6.024
C: 6.422

compound: CCOC(C)C(=O)Nc1cc(S(=O)(=O)NC2CC2)ccc1F (configuration not stated)
A: -92.76
B: 4.281
C: -19.93

compound: Cc1ncsc1C(=O)N1CCCCC1c1cc2nc(C)c(C)c(O)n2n1 (configuration not stated)
B: 26.03
C: 25.46

compound: CCOCCNC(=O)c1cc(COc2cncc(Cl)c2)on1
A: -24.8
B: -1.599
C: 18.8

compound: O=C(C1CCCS1)N1CCOc2cccc(F)c21 (configuration not stated)
A: -32.85
B: 1.287
C: 4.172

compound: O=S(=O)(c1ccccc1N1CC(n2cccn2)C1)C(F)(F)F
A: -53.53
B: 8.285
C: 5.541

Repeated from the top, 2 entries:

compound,A,B,C
O=C(O)C(F)(F)F.[H][C@@]12CCN(C(=O)C(C)C)CC[C@]1(C(=O)N1CCOCC1)CCN2C,-10.23,2.108,-11.95
O=C(Nc1ccc(-c2ccn[nH]2)cc1)C1CCCN(Cc2ccoc2)C1 (configuration not stated),-24.14,8.346,12.74

Measurements from “University of Dundee, Small-Polar-MMV Screening Library” (2021), ChEMBL document CHEMBL3988442.